From publication PMC11219872
These are yes or no findings as the source states them, for the method shown. Some entries that bind do so weakly or less than the wild type.

The chains behind the UniProt entries cited, without tags or fusion partners. Where a name states a change or a piece, a line headed by the entry shows the natural chain unless it says otherwise.
UniProt Q9UHI7: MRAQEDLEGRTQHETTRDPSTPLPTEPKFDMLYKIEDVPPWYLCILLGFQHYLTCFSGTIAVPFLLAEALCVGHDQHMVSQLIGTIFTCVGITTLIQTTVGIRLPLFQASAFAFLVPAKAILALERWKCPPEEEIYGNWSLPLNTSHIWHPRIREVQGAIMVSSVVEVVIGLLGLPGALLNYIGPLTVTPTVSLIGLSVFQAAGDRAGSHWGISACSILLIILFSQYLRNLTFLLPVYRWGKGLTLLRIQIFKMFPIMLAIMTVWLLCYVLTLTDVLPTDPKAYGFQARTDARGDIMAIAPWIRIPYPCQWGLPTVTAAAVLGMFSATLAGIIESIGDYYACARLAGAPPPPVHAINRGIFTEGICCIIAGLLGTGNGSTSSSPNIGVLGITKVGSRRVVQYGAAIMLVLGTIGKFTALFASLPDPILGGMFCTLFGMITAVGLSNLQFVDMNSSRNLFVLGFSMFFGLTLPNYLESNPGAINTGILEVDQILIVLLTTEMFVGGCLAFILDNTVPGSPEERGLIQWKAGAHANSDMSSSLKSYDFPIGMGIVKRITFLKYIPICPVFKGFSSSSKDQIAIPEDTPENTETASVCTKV

Assays:
[1] = target: hSVCT1-GFP F466A mutant (human) (UniProt Q9UHI7); experiment: SEC; fluorescence-detection SEC (FSEC, GFP fluorescence) of HEK293T lysates of wild type or mutants solubilised in 1% LMNG and 0.1% CHS; Superdex 200 Increase 10/300 GL or ENrich SEC 650; curves compared to wild type
[2] = target: C-terminally GFP-fused human SVCT1 (hSVCT1-GFP), wild type (human) (UniProt Q9UHI7); experiment: SEC; fluorescence-detection SEC (FSEC, GFP fluorescence) of HEK293T lysates solubilised in DDM, DDM-CHS, LMNG or LMNG-CHS; Superdex 200 Increase 10/300 GL; 20 mM HEPES pH 7.0, 150 mM NaCl (or K+ in place of Na+)
[3] = target: C-terminally GFP-fused human SVCT1 (hSVCT1-GFP), wild type (human) (UniProt Q9UHI7); experiment: SEC; fluorescence-detection SEC (FSEC, GFP fluorescence) of HEK293T lysates of wild type or mutants solubilised in 1% LMNG and 0.1% CHS; Superdex 200 Increase 10/300 GL or ENrich SEC 650; curves compared to wild type

| Substance | binding [1] | binding [2] | binding [3] |
| --- | --- | --- | --- |
| hSVCT1-GFP F466A mutant (from UniProt Q9UHI7 1-598) | binds |  |  |
| C-terminally GFP-fused human SVCT1 (hSVCT1-GFP), wild type (from UniProt Q9UHI7 1-598) |  | binds | binds |
